In PMC2390571:
The exact form of at least one protein or probe is not confirmed. Results from cells or extracts need not show a direct contact. For some of these results: Negatives hold for the conditions tested. For some of these results: At least one verdict was read from the data and is not stated in words by the source.

Key:
[1] = biological target: NKX3.1 (in LNCaP nuclear extract) (Homo sapiens) (UniProt Q99801); assay: EMSA, self-competition and antibody blocking; details: 250-fold unlabelled NBS3 and anti-NKX3.1 antibody block the complex; 20 mM HEPES pH 7.6, 30 mM KCl, 1 mM EDTA, 1 mM DTT, 0.2% Tween-20, 1 ug poly(dI-dC), 0.1 ug poly(L-Lys), 20 ug nuclear extract, 0.8 ng DIG probe, 20 ul, 20 min; protein in an extract; label: DIG (probe), unlabelled as competitor
[2] = biological target: NKX3.1 (in LNCaP nuclear extract) (Homo sapiens) (UniProt Q99801); assay: EMSA; details: 20 mM HEPES pH 7.6, 30 mM KCl, 1 mM EDTA, 1 mM DTT, 0.2% Tween-20, 1 ug poly(dI-dC), 0.1 ug poly(L-Lys), 20 ug nuclear extract, 0.8 ng DIG probe, 20 ul, 20 min; protein in an extract; label: DIG

| Sequence | binding result [1] | binding result [2] |
| --- | --- | --- |
| AAATAAGTAGCCT (double strand) [NBS3] | binds |  |
| AGGTAAGTAAAG (double strand) [NBS2] |  | no binding |
| CAATAAGTTTTAT (double strand) [NBS4] |  | no binding |
| TGTTAAGTATCCT (double strand) [NBS5] |  | no binding |
